Assay results from paper doi:10.1101/2022.03.17.484727.
Results are given in words; binding and its absence hold for the method and conditions named. In cells and extracts the contact can be indirect. Some binding calls cover weakened binding; strength is not graded here. Sequences can lack the tags named with a protein.

Amino acid sequences for entries named in this document (tags omitted). A change or cut given only in a name is not applied to a line headed by its entry. Chains listed by the source or under a name are the forms on record and can include a tag or linker.
UniProt Q14258: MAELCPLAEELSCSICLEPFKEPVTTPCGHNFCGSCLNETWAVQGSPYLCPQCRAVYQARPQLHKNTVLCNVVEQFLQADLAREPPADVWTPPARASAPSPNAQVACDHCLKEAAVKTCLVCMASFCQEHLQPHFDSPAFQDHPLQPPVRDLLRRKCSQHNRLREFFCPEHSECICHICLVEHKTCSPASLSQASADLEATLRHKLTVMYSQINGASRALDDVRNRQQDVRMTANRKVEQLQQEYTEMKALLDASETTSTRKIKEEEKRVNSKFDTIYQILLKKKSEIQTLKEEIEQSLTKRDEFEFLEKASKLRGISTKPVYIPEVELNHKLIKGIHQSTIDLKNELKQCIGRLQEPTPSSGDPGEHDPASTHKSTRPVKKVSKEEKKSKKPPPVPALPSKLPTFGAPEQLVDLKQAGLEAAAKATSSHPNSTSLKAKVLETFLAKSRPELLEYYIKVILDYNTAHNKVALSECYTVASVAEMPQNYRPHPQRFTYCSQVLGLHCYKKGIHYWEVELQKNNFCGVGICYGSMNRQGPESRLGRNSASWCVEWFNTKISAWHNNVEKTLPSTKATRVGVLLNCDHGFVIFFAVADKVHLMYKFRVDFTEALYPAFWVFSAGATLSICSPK
FLAG-tagged TRIM25-PTAA (Q14258, form named): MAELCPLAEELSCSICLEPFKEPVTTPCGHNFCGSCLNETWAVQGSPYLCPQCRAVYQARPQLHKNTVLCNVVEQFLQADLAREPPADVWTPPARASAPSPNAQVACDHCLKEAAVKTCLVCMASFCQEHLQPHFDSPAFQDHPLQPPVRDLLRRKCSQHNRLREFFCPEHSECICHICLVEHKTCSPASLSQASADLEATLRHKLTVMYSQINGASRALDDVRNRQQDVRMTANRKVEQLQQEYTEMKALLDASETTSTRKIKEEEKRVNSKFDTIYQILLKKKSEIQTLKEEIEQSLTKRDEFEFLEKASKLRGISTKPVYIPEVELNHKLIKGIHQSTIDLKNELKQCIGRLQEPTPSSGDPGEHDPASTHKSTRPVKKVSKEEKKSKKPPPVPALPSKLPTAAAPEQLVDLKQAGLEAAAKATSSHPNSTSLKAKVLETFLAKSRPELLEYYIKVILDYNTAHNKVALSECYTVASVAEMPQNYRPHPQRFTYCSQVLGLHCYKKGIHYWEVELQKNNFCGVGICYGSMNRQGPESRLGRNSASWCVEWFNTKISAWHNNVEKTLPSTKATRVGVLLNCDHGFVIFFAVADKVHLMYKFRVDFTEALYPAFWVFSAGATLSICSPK
myc-tagged NME1 (P15531-2, form named): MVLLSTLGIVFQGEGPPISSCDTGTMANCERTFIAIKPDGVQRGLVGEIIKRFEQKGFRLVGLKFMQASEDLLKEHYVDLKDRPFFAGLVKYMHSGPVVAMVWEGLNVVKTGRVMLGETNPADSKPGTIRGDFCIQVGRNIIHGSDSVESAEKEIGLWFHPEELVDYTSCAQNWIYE

B1: myc-tagged G3BP2 (protein, UniProt Q9UN86 1-482)
chain: MVMEKPSPLLVGREFVRQYYTLLNKAPEYLHRFYGRNSSYVHGGVDASGKPQEAVYGQNDIHHKVLSLNFSECHTKIRHVDAHATLSDGVVVQVMGLLSNSGQPERKFMQTFVLAPEGSVPNKFYVHNDMFRYEDEVFGDSEPELDEESEDEVEEEQEERQPSPEPVQENANSGYYEAHPVTNGIEEPLEESSHEPEPEPESETKTEELKPQVEEKNLEELEEKSTTPPPAEPVSLPQEPPKAFSWASVTSKNLPPSGTVSSSGIPPHVKAPVSQPRVEAKPEVQSQPPRVREQRPRERPGFPPRGPRPGRGDMEQNDSDNRRIIRYPDSHQLFVGNLPHDIDENELKEFFMSFGNVVELRINTKGVGGKLPNFGFVVFDDSEPVQRILIAKPIMFRGEVRLNVEEKKTRAARERETRGGGDDRRDIRRNDRGPGGPRGIVGGGMMRDRDGRGPPPRGGMAQKLGSGRGTGQMEGRFTGQRR
B2: V5-tagged UPF1 (protein, UniProt Q92900 1-1129)
chain: MSVEAYGPSSQTLTFLDTEEAELLGADTQGSEFEFTDFTLPSQTQTPPGGPGGPGGGGAGGPGGAGAGAAAGQLDAQVGPEGILQNGAVDDSVAKTSQLLAELNFEEDEEDTYYTKDLPIHACSYCGIHDPACVVYCNTSKKWFCNGRGNTSGSHIVNHLVRAKCKEVTLHKDGPLGETVLECYNCGCRNVFLLGFIPAKADSVVVLLCRQPCASQSSLKDINWDSSQWQPLIQDRCFLSWLVKIPSEQEQLRARQITAQQINKLEELWKENPSATLEDLEKPGVDEEPQHVLLRYEDAYQYQNIFGPLVKLEADYDKKLKESQTQDNITVRWDLGLNKKRIAYFTLPKTDSGNEDLVIIWLRDMRLMQGDEICLRYKGDLAPLWKGIGHVIKVPDNYGDEIAIELRSSVGAPVEVTHNFQVDFVWKSTSFDRMQSALKTFAVDETSVSGYIYHKLLGHEVEDVIIKCQLPKRFTAQGLPDLNHSQVYAVKTVLQRPLSLIQGPPGTGKTVTSATIVYHLARQGNGPVLVCAPSNIAVDQLTEKIHQTGLKVVRLCAKSREAIDSPVSFLALHNQIRNMDSMPELQKLQQLKDETGELSSADEKRYRALKRTAERELLMNADVICCTCVGAGDPRLAKMQFRSILIDESTQATEPECMVPVVLGAKQLILVGDHCQLGPVVMCKKAAKAGLSQSLFERLVVLGIRPIRLQVQYRMHPALSAFPSNIFYEGSLQNGVTAADRVKKGFDFQWPQPDKPMFFYVTQGQEEIASSGTSYLNRTEAANVEKITTKLLKAGAKPDQIGIITPYEGQRSYLVQYMQFSGSLHTKLYQEVEIASVDAFQGREKDFIILSCVRANEHQGIGFLNDPRRLNVALTRARYGVIIVGNPKALSKQPLWNHLLNYYKEQKVLVEGPLNNLRESLMQFSKPRKLVNTINPGARFMTTAMYDAREAIIPGSVYDRSSQGRPSSMYFQTHDQIGMISAGPSHVAAMNIPIPFNLVMPPMPPPGYFGQANGPAAGRGTPKGKTGRGGRQKNRFGLPGPSQTNLPNSQASQDVASQPFSQGALTQGYISMSQPSQMSQPGLSQPELSQDSYLGDEFKSQIDVALSQDSTYQGERAYQHGGVTGLSQY
B3: myc-tagged UPF1 (protein, UniProt Q92900 1-1129)
chain: MSVEAYGPSSQTLTFLDTEEAELLGADTQGSEFEFTDFTLPSQTQTPPGGPGGPGGGGAGGPGGAGAGAAAGQLDAQVGPEGILQNGAVDDSVAKTSQLLAELNFEEDEEDTYYTKDLPIHACSYCGIHDPACVVYCNTSKKWFCNGRGNTSGSHIVNHLVRAKCKEVTLHKDGPLGETVLECYNCGCRNVFLLGFIPAKADSVVVLLCRQPCASQSSLKDINWDSSQWQPLIQDRCFLSWLVKIPSEQEQLRARQITAQQINKLEELWKENPSATLEDLEKPGVDEEPQHVLLRYEDAYQYQNIFGPLVKLEADYDKKLKESQTQDNITVRWDLGLNKKRIAYFTLPKTDSGNEDLVIIWLRDMRLMQGDEICLRYKGDLAPLWKGIGHVIKVPDNYGDEIAIELRSSVGAPVEVTHNFQVDFVWKSTSFDRMQSALKTFAVDETSVSGYIYHKLLGHEVEDVIIKCQLPKRFTAQGLPDLNHSQVYAVKTVLQRPLSLIQGPPGTGKTVTSATIVYHLARQGNGPVLVCAPSNIAVDQLTEKIHQTGLKVVRLCAKSREAIDSPVSFLALHNQIRNMDSMPELQKLQQLKDETGELSSADEKRYRALKRTAERELLMNADVICCTCVGAGDPRLAKMQFRSILIDESTQATEPECMVPVVLGAKQLILVGDHCQLGPVVMCKKAAKAGLSQSLFERLVVLGIRPIRLQVQYRMHPALSAFPSNIFYEGSLQNGVTAADRVKKGFDFQWPQPDKPMFFYVTQGQEEIASSGTSYLNRTEAANVEKITTKLLKAGAKPDQIGIITPYEGQRSYLVQYMQFSGSLHTKLYQEVEIASVDAFQGREKDFIILSCVRANEHQGIGFLNDPRRLNVALTRARYGVIIVGNPKALSKQPLWNHLLNYYKEQKVLVEGPLNNLRESLMQFSKPRKLVNTINPGARFMTTAMYDAREAIIPGSVYDRSSQGRPSSMYFQTHDQIGMISAGPSHVAAMNIPIPFNLVMPPMPPPGYFGQANGPAAGRGTPKGKTGRGGRQKNRFGLPGPSQTNLPNSQASQDVASQPFSQGALTQGYISMSQPSQMSQPGLSQPELSQDSYLGDEFKSQIDVALSQDSTYQGERAYQHGGVTGLSQY

Columns and labels:
Experiment in all cases: co-IP
[1] = biological target: FLAG-tagged TRIM25 wild-type (human) (UniProt Q14258)
[2] = biological target: FLAG-tagged TRIM25-R54P (human) (UniProt Q14258)
[3] = biological target: FLAG-tagged TRIM25-PTAA (human) (UniProt Q14258)

| Molecule | binding [1] | binding [2] | binding [3] |
| --- | --- | --- | --- |
| myc-tagged NME1 (from UniProt P15531-2 1-177) (enzyme) | no binding | no binding |  |
| myc-tagged G3BP1 (from UniProt Q13283 1-466) | binds | binds | no binding |
| B1 | binds | binds | no binding |
| B2 | binds | binds |  |
| B3 | binds | binds |  |
